Measured values taken from the supplement of paper PMC12462457.
Several values for one entry are separate records, joined by “and”; a condition that tells them apart may be missing. Equal values may be shown once. Where a name gives a salt, the structure may show the parent alone. ± gives the standard deviation of the averaged measurements. The list shows a part of the results. This data set is noisy: repeats of one test often differ as much as different tests do.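 Cells were counted by imaging DAPI-stained nuclei, and cells lacking phalloidin-stained cytoplasm were excluded as dead. Each well's count was divided by the median count of the vehicle wells on the same plate, and values were averaged over two replicate plates.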

System: OVCAR8
Assay: cell count relative to DMSO vehicle (fold change); higher = more surviving senescent cells (less killing)
Conditions: senescence inducer: cisplatin 10 µM 48 h, then 6 d recovery (CP senescent), exposure time 24 h

Compound | cell count (compound dose 1 µM) | cell count (compound dose 5 µM)
C[C@@H]1CN(C(=O)Nc2ccc(-c3nc(N4CCOCC4)c4cnn(CCCCCCC(=O)NO)c4n3)cc2)CCO1 [HDACs/mTOR Inhibitor 1] | 0.417 ± 0.026 | 0.3835 ± 0.0021
CNC(=O)Nc1ccc(-c2nc(N3CC4CCC(C3)O4)c3cnn(C4CCC5(CC4)OCCO5)c3n2)cc1 | 0.673 ± 0.046 | 0.373 ± 0.079
C[C@H](NP(=O)(OC[C@H]1O[C@@H](n2cc(F)c(=O)[nH]c2=O)C[C@@H]1O)Oc1cccc2ccccc12)C(=O)OCc1ccccc1 (some centres undefined) [Fosifloxuridine nafalbenamide] | 1.11 ± 0.14 | 1.11 ± 0.037
O=NN(CCCl)C(=O)NC1CCCCC1 | 1.07 ± 0.12 | 0.828 ± 0.094
COc1ccc([C@H]2CNC(=O)C2)cc1OC1CCCC1 [(S)-(+)-Rolipram] | 1.13 ± 0.15 | 0.942 ± 0.044
O=C1CC[C@H](NC(=O)Cc2ccccc2)C(=O)N1 [Antineoplaston A10] | 0.803 ± 0.064 | 0.862 ± 0.088
O=C1NCCSc2c1sc1ccc(O)cc21 | 0.841 ± 0.049 | 0.794 ± 0.26
COc1ccccc1-c1cc(Nc2cccc(CS(N)(=O)=O)c2)ncn1 | 0.708 ± 0.04 | 1.15 ± 0.065
Cc1cc(C)cc(NC(N)=Nc2ccccc2C(F)(F)F)c1 | 0.877 ± 0.088 | 0.863 ± 0.083
Cc1nc(N2CCN(C)CC2)nc2c1Nc1ccccc1S2 | 1.35 ± 0.077 | 1.39 ± 0.22
COc1cc(/C=C/C(=O)N2CCC=CC2=O)cc(OC)c1OC | 1.101 ± 0.0071 | 0.663 ± 0.15
FC(F)(F)c1ccc(CNc2ccc(Cc3c[nH]c4ncc(Cl)cc34)cn2)cn1 [Pexidartinib] | 1.08 ± 0.081 | 1.08 ± 0.23
O=C(CCCCCCC(=O)NO)NO [Suberoyl bis-hydroxamic acid] | 1.06 ± 0.033 | 1.01 ± 0.15
OCCNC1CCCc2c1[nH]c1ccc(-c3ccccc3)cc21 (centres undefined) | 0.874 ± 0.046 | 0.772 ± 0.088
CC(C)[C@H](CO)Nc1nc(Nc2cccc(Cl)c2)c2ncn(C(C)C)c2n1 [Purvalanol A] | 0.832 ± 0.12 | 0.945 ± 0.15
COc1ccc(N(C)c2nc(C)nc3ccccc23)cc1 [Verubulin] | 0.755 ± 0.05 | 0.683 ± 0.16
CNC(=O)c1ccc(-c2cnc3ncc(Cc4ccc5ncccc5c4)n3n2)cc1F [Capmatinib] | 1.29 ± 0.12 | 1.13 ± 0.24
CCOC(=O)[C@H](CCc1ccccc1)N[C@@H](C)C(=O)N1[C@H](C(=O)O)C[C@@H]2CCC[C@@H]21 [Ramipril] | 1.03 ± 0.21 | 0.718 ± 0.43
O=c1c(O)c(-c2ccc(O)c(O)c2)oc2cc(O)ccc12 | 0.911 ± 0.024 | 0.918 ± 0.73
O=C(COc1ccc(Cl)cc1)NC1CCC(NC(=O)COc2ccc(Cl)cc2)CC1 (stereo not drawn) [ISRIB (trans-isomer)] | 1.17 ± 0.28 | 1.36 ± 0.058
O=C1C2C3C=CC(C4CC34)C2C(=O)N1c1ccc(Cc2ccncc2)cc1 (centres undefined) | 0.96 ± 0.0028 | 0.791 ± 0.36
COc1cc2c(cc1OC(C)C)[C@H](c1ccc(Cl)cc1)N(c1ccc(N(C)C[C@H]3CC[C@H](N4CCN(C)C(=O)C4)CC3)cc1)C(=O)C2 | 1.31 ± 0.37 | 0.926 ± 0.096
CCc1cc2c(=O)c(-c3nc4ccccc4s3)coc2c(CN2CCCCC2)c1O | 1.06 ± 0.28 | 1.09 ± 0.23
Cc1cc(C2CCCCC2)n(O)c(=O)c1 | 1.05 ± 0.075 | 1.28 ± 0.26

Compound | cell count (compound dose 1 µM) | cell count (compound dose 5 µM)
C[C@H]1[C@H](C)CC[C@]2(C(=O)O)CC[C@]3(C)C(=CC[C@@H]4[C@@]5(C)CCC(=O)C(C)(C)[C@@H]5CC[C@]43C)[C@H]12 [Ursonic acid] | 1.1 ± 0.06 | 1.08 ± 0.27
CCn1c(=O)c(-c2cc(NC(=O)Nc3ccccc3)c(F)cc2Br)cc2cnc(NC)cc21 [Ripretinib] | 1.3 | 1 ± 0.26
CCOc1cc([C@@H](CS(C)(=O)=O)N2C(=O)c3cccc(NC(C)=O)c3C2=O)ccc1OC [Apremilast] | 1.21 ± 0.02 | 0.851 ± 0.49
Cc1onc(C(=O)N2CCN(C(c3ccc(Cl)cc3)c3ccc(Cl)cc3)CC2)c1[N+](=O)[O-] | 0.0425 ± 0.0078 | 0.058 ± 0.0057
Nc1ccccc1NC(=O)c1ccc(CNC(=O)OCc2cccnc2)cc1 [Entinostat (MS-275)] | 1.14 ± 0.17 | 0.71 ± 0.11
CCCCC1=NC2(CCCC2)C(=O)N1Cc1ccc(-c2ccccc2-c2nnn[nH]2)cc1 | 1.3 ± 0.42 | 1.17 ± 0.017
CN(C)CC[C@H](CSc1ccccc1)Nc1ccc(S(=O)(=O)NC(=O)c2ccc(N3CCN(Cc4ccccc4-c4ccc(Cl)cc4)CC3)cc2)cc1[N+](=O)[O-] | 0.435 ± 0.12 | 0.267 ± 0.072
O=[N+]([O-])c1ccc2c(c1)S(=O)(=O)C=C2 [Stattic] | 1.14 ± 0.093 | 0.587 ± 0.022
CCNC(=O)CC[C@H](N)C(=O)O | 0.977 ± 0.085 | 0.715 ± 0.018
Nc1ncn([C@H]2C[C@H](O)[C@@H](CO)O2)c(=O)n1 [Decitabine] | 0.954 ± 0.074 | 1.08 ± 0.088
O=C(NOCCO)c1ccc2cncn2c1Nc1ccc(I)cc1F | 1.02 ± 0.03 | 0.852 ± 0.21
CC(=O)Nc1ccc(NC(=S)NC(=O)c2ccc(C(C)(C)C)cc2)cc1 [Tenovin-1] | 1.16 ± 0.03 | 1.23 ± 0.21
O=c1cc(-c2ccc(O)c(O)c2)oc2cc(O)cc(O)c12 [Luteolin] | 0.75 ± 0.33 | 0.686 ± 0.19
CC(C)N(CCCNC(=O)Nc1ccc(C(C)(C)C)cc1)C[C@H]1O[C@@H](n2ccc3c(N)ncnc32)[C@H](O)[C@@H]1O | 0.887 ± 0.1 | 0.727 ± 0.039
O=C1C=C2CC3(O)COc4c(ccc(O)c4O)C3=C2C=C1O (centres undefined) [Hematein] | 1.17 ± 0.062 | 1.16 ± 0.025
Cc1cc(Nc2ccc(NC(=O)c3ccc(Nc4ccnc5ccccc45)cc3)cc2)nc(N)n1 | 0.534 ± 0.04 | 0.162 ± 0.067
CN1CCN(c2ccc(-c3ccncc3-c3cc(F)c(O)c(F)c3)cc2)CC1 | 1.03 ± 0.14 | 1.03 ± 0.12
O=C1NC(=O)C(Cc2c[nH]c3c(Cl)cccc23)N1 (centres undefined) [Necroptosis-IN-1] | 1.37 ± 0.09 | 1.25 ± 0.15
CC(C)(C)C[C@@H]1N[C@@H](C(=O)N[C@H]2CC[C@H](O)CC2)[C@H](c2cccc(Cl)c2F)[C@]12C(=O)Nc1cc(Cl)ccc12 | 0.741 and 1.17 | 0.476 and 0.914
O=c1c2ccccc2oc2ccccc12 | 0.893 ± 0.06 | 0.591 ± 0.31
CC1(C)CC[C@]2(C(=O)n3cnc(-c4ccccn4)c3)CC[C@]3(C)[C@H](C(=O)C=C4[C@@]5(C)C=C(C#N)C(=O)C(C)(C)[C@@H]5CC[C@]43C)[C@@H]2C1 | 0.286 ± 0.058 | 0.035 ± 0.018
CC(C)=CC(=O)O[C@H]1Cc2cc3ccc(=O)oc3cc2OC1(C)C [Decursin] | 0.745 ± 0.0078 | 0.456 ± 0.15
CCC[C@H](Nc1nc(-c2ccc(NC(=O)NCC)c(OC)c2)ncc1C)c1cccnc1 [Lexibulin] | 0.587 ± 0.0064 | 0.776 ± 0.1
COc1cc2ncc(-c3ccccc3)nc2cc1OC [Tyrphostin AG 1296] | 1.05 ± 0.047 | 1.11 ± 0.12

Exported tab-delimited: part of the list above
Compound	cell count (compound dose 1 µM)	cell count (compound dose 5 µM)
Cc1nc(N2CCN(C)CC2)nc2c1Nc1ccccc1S2	1.35 ± 0.077	1.39 ± 0.22
OCCNC1CCCc2c1[nH]c1ccc(-c3ccccc3)cc21 (centres undefined)	0.874 ± 0.046	0.772 ± 0.088
C[C@H]1[C@H](C)CC[C@]2(C(=O)O)CC[C@]3(C)C(=CC[C@@H]4[C@@]5(C)CCC(=O)C(C)(C)[C@@H]5CC[C@]43C)[C@H]12 [Ursonic acid]	1.1 ± 0.06	1.08 ± 0.27
O=c1cc(-c2ccc(O)c(O)c2)oc2cc(O)cc(O)c12 [Luteolin]	0.75 ± 0.33	0.686 ± 0.19

Next part:

Compound | cell count (compound dose 1 µM) | cell count (compound dose 5 µM)
O=c1cc(N2CCNCC2)oc2c(-c3ccccc3)cccc12 | 1 ± 0.15 | 1.02 ± 0.12
COc1cc(Nc2ncc(F)c(Nc3ccc4c(n3)NC(=O)C(C)(C)O4)n2)cc(OC)c1OC [R406 (free base)] | 0.944 ± 0.093 | 0.689 ± 0.095
COc1cc(Nc2ncc(F)c(Nc3ccc4c(n3)NC(=O)C(C)(C)O4)n2)cc(OC)c1OC | 0.786 ± 0.057 | 0.348 ± 0.049
Cn1cc(-n2cnc3c(NCc4nc5cc(Cl)c(Cl)cc5[nH]4)nc(N4CCOCC4)nc32)cn1 | 0.59 ± 0.0064 | 0.743 ± 0.019
Cc1ccc(NC(=O)c2ccc(CN3CC[C@H](N(C)C)C3)c(C(F)(F)F)c2)cc1Nc1nccc(-c2cncnc2)n1 [Bafetinib] | 1.097 ± 0.0085 | 0.961 ± 0.056
CC1(C)CCC(CN2CCN(c3ccc(C(=O)NS(=O)(=O)c4ccc(NCC5CCOCC5)c([N+](=O)[O-])c4)c(Oc4cnc5[nH]ccc5c4)c3)CC2)=C(c2ccc(Cl)cc2)C1 [Venetoclax] | 1.04 ± 0.13 | 0.757 ± 0.016
CCCCCCCCCCC[C@@H](C[C@@H]1OC(=O)[C@H]1CCCCCC)OC(=O)[C@H](CC(C)C)NC=O [Orlistat] | 1.04 ± 0.053 | 0.957 ± 0.035
CS(=O)(=O)c1cccc(CNc2nc(Nc3ccc4c(c3)CCC(=O)N4)ncc2C(F)(F)F)c1 | 1.01 ± 0.23 | 0.611 ± 0.47
CC[C@H](CC[C@@H](C)[C@H]1CC[C@H]2[C@@H]3CC=C4C[C@@H](O)CC[C@]4(C)[C@H]3CC[C@]12C)C(C)C [beta-SITOSTEROL] | 0.994 ± 0.077 | 1.08 ± 0.071
COc1ccc(CCNCc2ccc(OCc3ccc(Cl)nc3)c(OC)c2)cc1OC [SBE13 (Hydrochloride)] | 0.918 ± 0.03 | 0.989 ± 0.033
CC(C)(C)c1cc(C(c2cc3c(cc2O)OCO3)N2CCOCC2)cc(C(C)(C)C)c1O (centres undefined) | 0.915 ± 0.27 | 0.047 ± 0.05
O=c1ccc2ccc(O)c(O)c2o1 [Daphnetin] | 0.745 ± 0.0014 | 0.503 ± 0.28
O=C(Nc1cccnc1)c1cccs1 | 0.88 ± 0.074 | 0.763 ± 0.21
c1ccc2nc3ccccc3nc2c1 [Phenazine (methylsulfate)] | 0.726 ± 0.24 | 0.394 ± 0.45
CS(=O)(=O)CCNCc1ccc(-c2ccc3ncnc(Nc4ccc(OCc5cccc(F)c5)c(Cl)c4)c3c2)o1 [Lapatinib] | 0.977 ± 0.14 | 0.573 ± 0.27
CS(=O)(=O)CCNCc1ccc(-c2ccc3ncnc(Nc4ccc(OCc5cccc(F)c5)c(Cl)c4)c3c2)o1 | 0.521 ± 0.061 | 0.379 ± 0.02
Cn1cc(CC(N)C(=O)O)c2ccccc21 (racemic) [(Rac)-Indoximod] | 1.48 ± 0.087 | 1.53 ± 0.1
O=c1[nH]c(=O)n([C@H]2C[C@H](O)[C@@H](CO)O2)cc1C(F)(F)F | 1.19 ± 0.064 | 0.969 ± 0.25
COC(=O)c1ccc(O)c(O)c1 [Methyl 3,4-dihydroxybenzoate] | 1.02 ± 0.042 | 1.06 ± 0.096
COc1ccc2c3c1O[C@H]1C[C@@H](O)C=C[C@@]31CCN(C)C2 [Galanthamine] | 0.794 ± 0.099 | 0.892 ± 0.047
O=C(NNc1ccccc1)c1ccncc1 [PluriSIn 1] | 1.3 ± 0.23 | 1.21 ± 0.22
COc1cc(OC)cc(N2CCN(C(=O)Nc3nc4cc(F)ccc4nc3OC)CC2)c1 [Supinoxin] | 0.588 ± 0.13 | 0.666 ± 0.014
COc1cc2c(cc1OC)[C@@H]1C(=O)c3ccc4c(c3O[C@@H]1CO2)C=CC(C)(C)O4 [Deguelin] | 1.18 ± 0.14 | 0.899 ± 0.19
C=C1CCC[C@]2(C)C[C@@H]3OC(=O)C(C)=C3C[C@@H]12 [Atractylenolide II] | 1.05 ± 0.1 | 0.644 ± 0.24
